Experimental data published in publication PMC5794190.
These are yes or no findings as the source states them, for the method shown. In cells and extracts the contact can be indirect. Here binding means that the protein was enriched with, or labelled near, the bait; the list need not be complete.

Sequences of proteins named here, by UniProt entry; tags and fusion partners are left off. Residues count along the entry.
UniProt P03186, residues 1-325: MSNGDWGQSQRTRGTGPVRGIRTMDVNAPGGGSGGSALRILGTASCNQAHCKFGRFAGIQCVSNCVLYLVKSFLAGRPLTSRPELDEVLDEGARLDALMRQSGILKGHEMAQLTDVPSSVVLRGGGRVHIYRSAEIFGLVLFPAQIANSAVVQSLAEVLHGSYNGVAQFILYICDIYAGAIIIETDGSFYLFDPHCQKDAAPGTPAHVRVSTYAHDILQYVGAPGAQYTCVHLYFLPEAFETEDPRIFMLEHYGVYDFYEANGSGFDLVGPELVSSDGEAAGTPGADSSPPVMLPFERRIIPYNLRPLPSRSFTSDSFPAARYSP
UniProt P31946: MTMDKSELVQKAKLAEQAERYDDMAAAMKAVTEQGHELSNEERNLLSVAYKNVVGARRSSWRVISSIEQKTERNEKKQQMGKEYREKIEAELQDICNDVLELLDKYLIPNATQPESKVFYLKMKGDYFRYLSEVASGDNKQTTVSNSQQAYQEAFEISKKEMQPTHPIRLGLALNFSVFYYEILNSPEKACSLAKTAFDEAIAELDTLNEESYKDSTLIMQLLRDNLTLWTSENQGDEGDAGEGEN
UniProt P62258: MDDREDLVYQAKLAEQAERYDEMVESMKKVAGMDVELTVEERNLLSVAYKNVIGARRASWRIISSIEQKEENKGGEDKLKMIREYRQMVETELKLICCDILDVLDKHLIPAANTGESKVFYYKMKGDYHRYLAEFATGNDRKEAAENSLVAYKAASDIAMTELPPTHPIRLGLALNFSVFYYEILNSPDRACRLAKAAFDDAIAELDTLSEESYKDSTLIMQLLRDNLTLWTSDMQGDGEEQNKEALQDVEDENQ
UniProt P63104: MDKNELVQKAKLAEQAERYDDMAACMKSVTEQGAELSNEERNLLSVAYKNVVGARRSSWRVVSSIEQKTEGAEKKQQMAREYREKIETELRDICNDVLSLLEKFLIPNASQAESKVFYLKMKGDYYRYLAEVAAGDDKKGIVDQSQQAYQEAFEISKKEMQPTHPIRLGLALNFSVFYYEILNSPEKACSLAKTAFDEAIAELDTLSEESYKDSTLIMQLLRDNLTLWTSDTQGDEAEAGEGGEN
UniProt Q14258: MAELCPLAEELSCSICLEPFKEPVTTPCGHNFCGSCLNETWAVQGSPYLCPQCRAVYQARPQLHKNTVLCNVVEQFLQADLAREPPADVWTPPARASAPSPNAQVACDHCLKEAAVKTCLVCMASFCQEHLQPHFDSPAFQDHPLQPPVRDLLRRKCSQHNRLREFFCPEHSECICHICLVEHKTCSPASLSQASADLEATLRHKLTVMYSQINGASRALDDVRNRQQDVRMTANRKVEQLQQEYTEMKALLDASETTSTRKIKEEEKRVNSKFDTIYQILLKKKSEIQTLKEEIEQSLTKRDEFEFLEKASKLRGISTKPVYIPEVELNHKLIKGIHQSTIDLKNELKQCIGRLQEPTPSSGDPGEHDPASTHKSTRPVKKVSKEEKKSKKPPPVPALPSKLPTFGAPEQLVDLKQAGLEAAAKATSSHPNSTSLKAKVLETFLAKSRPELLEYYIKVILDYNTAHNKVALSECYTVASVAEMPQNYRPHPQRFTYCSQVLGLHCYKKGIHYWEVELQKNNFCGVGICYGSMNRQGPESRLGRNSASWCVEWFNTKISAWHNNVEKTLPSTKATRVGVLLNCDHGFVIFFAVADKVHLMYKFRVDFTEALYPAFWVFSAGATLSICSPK

B1: 14-3-3η (protein, UniProt Q04917 1-246)
chain: MGDREQLLQRARLAEQAERYDDMASAMKAVTELNEPLSNEDRNLLSVAYKNVVGARRSSWRVISSIEQKTMADGNEKKLEKVKAYREKIEKELETVCNDVLSLLDKFLIKNCNDFQYESKVFYLKMKGDYYRYLAEVASGEKKNSVVEASEAAYKEAFEISKEQMQPTHPIRLGLALNFSVFYYEIQNAPEQACLLAKQAFDDAIAELDTLNEDSYKDSTLIMQLLRDNLTLWTSDQQDEEAGEGN
B2: 14-3-3γ (protein, UniProt P61981 1-247)
chain: MVDREQLVQKARLAEQAERYDDMAAAMKNVTELNEPLSNEERNLLSVAYKNVVGARRSSWRVISSIEQKTSADGNEKKIEMVRAYREKIEKELEAVCQDVLSLLDNYLIKNCSETQYESKVFYLKMKGDYYRYLAEVATGEKRATVVESSEKAYSEAHEISKEHMQPTHPIRLGLALNYSVFYYEIQNAPEQACHLAKTAFDDAIAELDTLNEDSYKDSTLIMQLLRDNLTLWTSDQQDDDGGEGNN

Assays:
[1] = target: FLAG-BPLF1 (aa 1-325), catalytically active N-terminal domain of BPLF1 (Epstein-Barr virus) (UniProt P03186); assay: affinity purification with mass spectrometry; anti-FLAG agarose on 10 mg clarified lysate of transfected HeLa cells (NP-40 lysis buffer, 150 mM NaCl, pH 7.6; 4 h at 4°C), elution with FLAG peptide, SDS-PAGE, LC/MS/MS; hits absent from the FLAG-empty vector control; two independent experiments
[2] = target: FLAG-BPLF1C61A, catalytic mutant of the BPLF1 N-terminal domain (Epstein-Barr virus); assay: as above

| Molecule | binding [1] | binding [2] |
| --- | --- | --- |
| 14-3-3β (from UniProt P31946 1-246) | binds |  |
| 14-3-3ε (from UniProt P62258 1-255) | binds |  |
| 14-3-3ζ (from UniProt P63104 1-245) | binds |  |
| EGFR (from UniProt P00533 25-1210) (receptor) | binds |  |
| TRIM25 ubiquitin ligase (endogenous) (from UniProt Q14258 1-630) | binds |  |
| B1 | binds | binds |
| B2 | binds | binds |
